Test results reported in publication PMC8897508.
These are yes or no findings as the source states them, for the method shown. Binding seen in cells or lysates may run through a third protein. Some results given as binding are weak or reduced against the parent protein; the word gives no strength.

Chains of the proteins cited; added tags and fusions are not shown. Residues count along the entry.
UniProt Q8K1S3, residues 27-945: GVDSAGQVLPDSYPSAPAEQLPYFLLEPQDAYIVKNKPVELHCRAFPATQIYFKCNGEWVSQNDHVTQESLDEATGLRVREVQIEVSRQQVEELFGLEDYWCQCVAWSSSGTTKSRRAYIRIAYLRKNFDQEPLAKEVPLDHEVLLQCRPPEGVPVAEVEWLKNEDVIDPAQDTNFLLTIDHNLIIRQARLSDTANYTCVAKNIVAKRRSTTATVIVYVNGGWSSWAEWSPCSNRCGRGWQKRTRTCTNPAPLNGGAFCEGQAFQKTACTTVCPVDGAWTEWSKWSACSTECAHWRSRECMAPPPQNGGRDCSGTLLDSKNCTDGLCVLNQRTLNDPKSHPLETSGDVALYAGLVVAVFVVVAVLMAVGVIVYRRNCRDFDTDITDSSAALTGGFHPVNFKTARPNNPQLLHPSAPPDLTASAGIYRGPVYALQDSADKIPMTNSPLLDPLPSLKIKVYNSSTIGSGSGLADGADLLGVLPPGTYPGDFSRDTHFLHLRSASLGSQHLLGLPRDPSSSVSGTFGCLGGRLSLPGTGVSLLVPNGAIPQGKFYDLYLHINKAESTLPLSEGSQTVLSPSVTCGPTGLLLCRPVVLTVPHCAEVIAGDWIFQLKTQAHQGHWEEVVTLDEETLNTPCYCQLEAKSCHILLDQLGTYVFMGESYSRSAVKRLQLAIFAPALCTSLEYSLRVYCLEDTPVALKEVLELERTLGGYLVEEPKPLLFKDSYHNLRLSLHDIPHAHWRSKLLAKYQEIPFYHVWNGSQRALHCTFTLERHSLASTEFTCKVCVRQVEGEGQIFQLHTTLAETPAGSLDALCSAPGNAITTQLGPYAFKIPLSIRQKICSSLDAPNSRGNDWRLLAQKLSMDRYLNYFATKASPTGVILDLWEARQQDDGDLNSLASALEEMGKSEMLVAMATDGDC

Target: Unc5B receptor (mouse, endogenous) (mouse (endogenous in mouse brain endothelial cells and mouse brain)) (UniProt Q8K1S3)
Assay: co-IP; Unc5B antibody (R&D, AF1006) or control IgG, protein A/G magnetic beads, RIPA buffer, overnight at 4 °C; lysate of cultured primary mouse brain microvascular endothelial cells; western blot

Row | Binder | binding
1 | Frizzled4 (mouse, endogenous) (receptor, UniProt Q61088 37-537) FGDEEERRCDPIRIAMCQNLGYNVTKMPNLVGHELQTDAELQLTTFTPLIQYGCSSQLQFFLCSVYVPMCTEKINIPIGPCGGMCLSVKRRCEPVLREFGFAWPDTLNCSKFPPQNDHNHMCMEGPGDEEVPLPHKTPIQPGEECHSVGSNSDQYIWVKRSLNCVLKCGYDAGLYSRSAKEFTDIWMAVWASLCFISTTFTVLTFLIDSSRFSYPERPIIFLSMCYNIYSIAYIVRLTVGRERISCDFEEAAEPVLIQEGLKNTGCAIIFLLMYFFGMASSIWWVILTLTWFLAAGLKWGHEAIEMHSSYFHIAAWAIPAVKTIVILIMRLVDADELTGLCYVGNQNLDALTGFVVAPLFTYLVIGTLFIAAGLVALFKIRSNLQKDGTKTDKLERLMVKIGVFSVLYTVPATCVIACYFYEISNWALFRYSADDSNMAVEMLKIFMSLLVGITSGMWIWSAKTLHTWQKCSNRLVNSGKVKREKRGNGWVKPGKGNETVV | binds
2 | GPR124 (Wnt co-receptor; mouse, endogenous) (receptor, UniProt Q91ZV8 34-1336) APGCPVPIRGCKCSGERPKGLSGGAHNPARRRVVCGGGDLPEPPDPGLLPNGTITLLLSNNKITGLRNGSFLGLSLLEKLDLRSNVISTVQPGAFLGLGELKRLDLSNNRIGCLTSETFQGLPRLLRLNISGNIYSSLQPGVFDELPALKIVDFGTEFLTCDCRLRWLLPWARNHSLQLSERTLCAYPSALHAHALSSLQESQLRCEGALELHTHYLIPSLRQVVFQGDRLPFQCSASYLGNDTRIHWYHNGAPMESDEQAGIVLAENLIHDCTFITSELTLSHIGVWASGEWECSVSTVQGNTSKKVEIVVLETSASYCPAERVTNNRGDFRWPRTLAGITAYQSCLQYPFTSVPLSGGAPGTRASRRCDRAGRWEPGDYSHCLYTNDITRVLYTFVLMPINASNALTLAHQLRVYTAEAASFSDMMDVVYVAQMIQKFLGYVDQIKELVEVMVDMASNLMLVDEHLLWLAQREDKACSGIVGALERIGGAALSPHAQHISVNSRNVALEAYLIKPHSYVGLTCTAFQRREVGVSGAQPSSVGQDAPVEPEPLADQQLRFRCTTGRPNISLSSFHIKNSVALASIQLPPSLFSTLPAALAPPVPPDCTLQLLVFRNGRLFRSHGNNTSRPGAAGPGKRRGVATPVIFAGTSGCGVGNLTEPVAVSLRHWAEGADPMAAWWNQDGPGGWSSEGCRLRYSQPNVSSLYCQHLGNVAVLMELNAFPREAGGSGAGLHPVVYPCTALLLLCLFSTIITYILNHSSIHVSRKGWHMLLNLCFHMAMTSAVFVGGVTLTNYQMVCQAVGITLHYSSLSSLLWMGVKARVLHKELSWRAPPLEEGEAAPPGPRPMLRFYLIAGGIPLIICGITAAVNIHNYRDHSPYCWLVWRPSLGAFYIPVALILPITWIYFLCAGLHLRSHVAQNPKQGNRISLEPGEELRGSTRLRSSGVLLNDSGSLLATVSAGVGTPAPPEDGDGVYSPGVQLGALMTTHFLYLAMWACGALAVSQRWLPRVVCSCLYGVAASALGLFVFTHHCARRRDVRASWRACCPPASPSASHVPARALPTATEDGSPVLGEGPASLKSSPSGSSGRAPPPPCKLTNLQVAQSQVCEASVAARGDGEPEPTGSRGSLAPRHHNNLHHGRRVHKSRAKGHRAGETGGKSRLKALRAGTSPGAPELLSSESGSLHNSPSDSYPGSSRNSPGDGLPLEGEPMLTPSEGSDTSAAPIAETGRPGQRRSASRDNLKGSGSALERESKRRSYPLNTTSLNGAPKGGKYEDASVTGAEAIAGGSMKTGLWKSETTV | binds
